# Measurements taken from patent US20240254093A1, “GPR35 Agonist Compounds” (Heptares Therapeutics Limited, priority 2021, published 2024).
# At least one compound was matched to its structure with a doubt left.
# Assay: Water activity studies (competitive slurries of Hydrate I and Hydrate II)
# Format: physicochemical
Structure (SMILES),water activity of solvent mixtures in which Hydrate II converts to Hydrate I (equilibration of Hydrate II alone),"water activity of solvent mixtures from which Hydrate I was isolated (competitive slurries of Hydrate I and Hydrate II, room temperature)"
O=C(NCc1ccccc1)c1ccc(-c2cc(Nc3c(O)c(=O)c3=O)cc(-c3nn[nH]n3)c2)cc1 [Hydrate II],≥ 0.5,
O=C(NCc1ccccc1)c1ccc(-c2cc(Nc3c(O)c(=O)c3=O)cc(-c3nn[nH]n3)c2)cc1 [Hydrate I],,greater than 0.5
